# Measured values: the supplement of paper PMC6411743
# ± gives the standard deviation of the averaged measurements. Only a part is listed here, and it is no random draw.
# Experiments:
# Assay in all cases: NP40-soluble protein abundance relative to vehicle (solubility fold change) (ratio); higher = more soluble protein in presence of ATP
# [1] = biological target: T1, A0A087WUK6|A0A087WZT0|M0QZ22 and related entries (UniProt Q5PRF9)
# T1 sequence (whole entry): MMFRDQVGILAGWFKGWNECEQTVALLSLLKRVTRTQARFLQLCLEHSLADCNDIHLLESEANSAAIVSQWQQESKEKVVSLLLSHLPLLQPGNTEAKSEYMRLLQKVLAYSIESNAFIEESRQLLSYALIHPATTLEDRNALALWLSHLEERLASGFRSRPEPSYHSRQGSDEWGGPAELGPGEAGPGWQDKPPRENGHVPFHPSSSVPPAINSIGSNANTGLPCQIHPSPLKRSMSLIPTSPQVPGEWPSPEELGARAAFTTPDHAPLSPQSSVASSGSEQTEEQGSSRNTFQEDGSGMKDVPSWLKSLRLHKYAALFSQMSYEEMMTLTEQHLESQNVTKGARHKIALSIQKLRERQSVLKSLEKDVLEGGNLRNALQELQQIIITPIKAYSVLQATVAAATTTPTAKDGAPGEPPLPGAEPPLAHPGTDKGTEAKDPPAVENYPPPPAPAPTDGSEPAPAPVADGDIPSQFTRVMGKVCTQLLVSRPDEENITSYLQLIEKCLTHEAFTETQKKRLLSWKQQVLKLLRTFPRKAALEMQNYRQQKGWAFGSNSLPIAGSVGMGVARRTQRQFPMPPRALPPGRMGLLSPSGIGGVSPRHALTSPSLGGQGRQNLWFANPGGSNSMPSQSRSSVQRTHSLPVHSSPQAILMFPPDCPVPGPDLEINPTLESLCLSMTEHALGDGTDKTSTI
# Summary of the method: (§1)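 Crude Jurkat lysate, prepared by Dounce homogenisation, was exposed to eight concentrations from 0.1 to 10 mM for 10 min at room temperature and then 3 min at 37 °C. Solubilisation used 0.8% NP40 with benzonase for 60 min at 4 °C, followed by ultracentrifugation and TMT labelling of the supernatant for LC-MS/MS. After vsn normalisation of intensities, each value is the fold change against the detergent-processed vehicle within each replicate, across three independent experiments.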
# [2] = biological target: T2, A0A087WVU5|O00512 (UniProt O00512)
# T2 sequence (whole entry): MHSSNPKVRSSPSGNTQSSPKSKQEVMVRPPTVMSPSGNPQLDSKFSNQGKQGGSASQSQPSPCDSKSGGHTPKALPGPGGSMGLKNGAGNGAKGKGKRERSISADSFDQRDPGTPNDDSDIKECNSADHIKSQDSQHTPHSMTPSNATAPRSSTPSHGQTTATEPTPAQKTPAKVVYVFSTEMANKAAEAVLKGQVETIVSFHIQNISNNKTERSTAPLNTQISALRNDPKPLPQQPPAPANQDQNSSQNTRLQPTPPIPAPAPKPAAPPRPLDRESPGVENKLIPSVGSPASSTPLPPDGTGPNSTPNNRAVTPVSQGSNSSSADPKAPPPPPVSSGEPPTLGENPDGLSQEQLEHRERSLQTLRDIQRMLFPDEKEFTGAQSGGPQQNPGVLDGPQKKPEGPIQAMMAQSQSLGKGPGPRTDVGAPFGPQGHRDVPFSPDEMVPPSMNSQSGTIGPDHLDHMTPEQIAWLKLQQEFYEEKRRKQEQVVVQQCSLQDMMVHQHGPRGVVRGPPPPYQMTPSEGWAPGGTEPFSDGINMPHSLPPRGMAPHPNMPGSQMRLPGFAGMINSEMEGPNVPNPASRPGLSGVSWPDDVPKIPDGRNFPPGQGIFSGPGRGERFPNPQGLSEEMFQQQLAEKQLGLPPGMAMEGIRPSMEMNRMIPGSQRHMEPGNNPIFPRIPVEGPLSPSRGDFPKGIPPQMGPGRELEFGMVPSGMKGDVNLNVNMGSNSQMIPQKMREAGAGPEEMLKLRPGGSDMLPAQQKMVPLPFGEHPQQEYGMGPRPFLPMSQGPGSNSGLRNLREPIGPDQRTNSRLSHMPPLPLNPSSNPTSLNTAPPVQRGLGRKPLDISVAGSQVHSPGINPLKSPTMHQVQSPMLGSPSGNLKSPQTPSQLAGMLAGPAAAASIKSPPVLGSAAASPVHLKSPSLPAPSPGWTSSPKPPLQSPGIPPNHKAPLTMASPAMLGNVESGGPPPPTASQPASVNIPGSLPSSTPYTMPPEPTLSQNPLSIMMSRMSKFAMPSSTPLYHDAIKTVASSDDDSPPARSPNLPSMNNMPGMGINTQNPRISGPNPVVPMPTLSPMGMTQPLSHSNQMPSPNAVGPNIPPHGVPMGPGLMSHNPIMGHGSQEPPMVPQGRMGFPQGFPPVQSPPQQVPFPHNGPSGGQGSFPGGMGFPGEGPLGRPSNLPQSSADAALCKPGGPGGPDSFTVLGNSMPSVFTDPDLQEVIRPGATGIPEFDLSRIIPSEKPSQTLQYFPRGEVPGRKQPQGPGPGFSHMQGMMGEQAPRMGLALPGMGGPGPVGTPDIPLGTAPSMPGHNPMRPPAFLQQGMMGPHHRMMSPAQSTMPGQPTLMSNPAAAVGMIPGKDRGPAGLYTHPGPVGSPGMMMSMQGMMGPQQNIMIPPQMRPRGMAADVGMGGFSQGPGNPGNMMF
# Summary of the method: as §1
# [3] = biological target: T3, A0A087WVZ0|Q9Y5U8 (UniProt Q9Y5U8)
# T3 sequence (whole entry): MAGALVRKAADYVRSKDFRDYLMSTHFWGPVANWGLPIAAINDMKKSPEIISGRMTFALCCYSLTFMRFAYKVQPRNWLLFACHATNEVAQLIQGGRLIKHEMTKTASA
# Summary of the method: as §1
# [4] = biological target: T4, A0A087WWU1|Q96Q45 and related entries (UniProt Q96Q45)
# T4 sequence (whole entry): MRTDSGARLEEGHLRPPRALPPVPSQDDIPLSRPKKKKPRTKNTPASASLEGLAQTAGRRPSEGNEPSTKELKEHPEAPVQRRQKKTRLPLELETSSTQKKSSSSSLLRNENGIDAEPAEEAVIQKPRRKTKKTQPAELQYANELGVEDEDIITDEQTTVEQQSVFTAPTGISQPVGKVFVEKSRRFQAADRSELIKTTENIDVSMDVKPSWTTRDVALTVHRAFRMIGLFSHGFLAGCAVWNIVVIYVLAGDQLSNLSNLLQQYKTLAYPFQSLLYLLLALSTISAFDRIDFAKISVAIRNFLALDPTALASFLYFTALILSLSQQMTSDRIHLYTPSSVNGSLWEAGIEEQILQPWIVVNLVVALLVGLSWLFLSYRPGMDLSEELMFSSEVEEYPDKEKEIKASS
# Summary of the method: as §1
# [5] = biological target: T5, A0A087WXF8|A0A087WXU5|A0A087WYF0|A0A0D9SEW3|Q9NP64 and related entries (UniProt Q9NP64)
# T5 sequence (whole entry): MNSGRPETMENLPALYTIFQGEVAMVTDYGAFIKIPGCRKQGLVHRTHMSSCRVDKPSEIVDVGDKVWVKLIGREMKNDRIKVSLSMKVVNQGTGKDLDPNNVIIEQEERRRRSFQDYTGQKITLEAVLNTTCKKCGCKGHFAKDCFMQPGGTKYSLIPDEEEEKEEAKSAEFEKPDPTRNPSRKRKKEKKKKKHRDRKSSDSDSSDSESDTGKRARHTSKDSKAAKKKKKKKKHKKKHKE
# Summary of the method: as §1
smiles,measurement,setting,value
Nc1ncnc2c1ncn2[C@@H]1O[C@H](COP(=O)(O)OP(=O)(O)OP(=O)(O)O)[C@@H](O)[C@H]1O [adenosine triphosphate],NP40-soluble protein abundance,[1]; concentration: 1mM,0.99 ± 0.075
same,NP40-soluble protein abundance,[1]; concentration: 2mM,1.01 ± 0.076
same,NP40-soluble protein abundance,[1]; concentration: 4mM,1.06 ± 0.043
same,NP40-soluble protein abundance,[1]; concentration: 6mM,1.03 ± 0.11
same,NP40-soluble protein abundance,[1]; concentration: 8mM,1.02 ± 0.05
same,NP40-soluble protein abundance,[1]; concentration: 10mM,1.04 ± 0.095
same,NP40-soluble protein abundance,[2]; concentration: 1mM,0.973 ± 0.06
same,NP40-soluble protein abundance,[2]; concentration: 2mM,0.972 ± 0.13
same,NP40-soluble protein abundance,[2]; concentration: 4mM,0.917 ± 0.043
same,NP40-soluble protein abundance,[2]; concentration: 6mM,0.944 ± 0.073
same,NP40-soluble protein abundance,[2]; concentration: 8mM,0.92 ± 0.048
same,NP40-soluble protein abundance,[2]; concentration: 10mM,0.921 ± 0.046
same,NP40-soluble protein abundance,[3]; concentration: 1mM,1 ± 0.2
same,NP40-soluble protein abundance,[3]; concentration: 2mM,1.01 ± 0.17
same,NP40-soluble protein abundance,[3]; concentration: 4mM,0.961 ± 0.1
same,NP40-soluble protein abundance,[3]; concentration: 6mM,0.913 ± 0.088
same,NP40-soluble protein abundance,[3]; concentration: 8mM,0.902 ± 0.022
same,NP40-soluble protein abundance,[3]; concentration: 10mM,0.952 ± 0.12
same,NP40-soluble protein abundance,[4]; concentration: 1mM,0.982 ± 0.097
same,NP40-soluble protein abundance,[4]; concentration: 2mM,1.02 ± 0.013
same,NP40-soluble protein abundance,[4]; concentration: 4mM,1.05 ± 0.059
same,NP40-soluble protein abundance,[4]; concentration: 6mM,1.06 ± 0.044
same,NP40-soluble protein abundance,[4]; concentration: 8mM,1.01 ± 0.061
same,NP40-soluble protein abundance,[4]; concentration: 10mM,0.973 ± 0.026
same,NP40-soluble protein abundance,[5]; concentration: 1mM,0.92 ± 0.018
same,NP40-soluble protein abundance,[5]; concentration: 2mM,0.881 ± 0.018
same,NP40-soluble protein abundance,[5]; concentration: 4mM,0.871 ± 0.032

# 2 entries from above, reformatted:
smiles | measurement | setting | value
Nc1ncnc2c1ncn2[C@@H]1O[C@H](COP(=O)(O)OP(=O)(O)OP(=O)(O)O)[C@@H](O)[C@H]1O [adenosine triphosphate] | NP40-soluble protein abundance | [1]; concentration: 2mM | 1.01 ± 0.076
same | NP40-soluble protein abundance | [2]; concentration: 10mM | 0.921 ± 0.046
